Results published in the supplement of paper PMC8728848.
Some of the results follow.

How the values were obtained:
Assay in all cases: glycan array binding signal (z-score within array); higher = stronger binding
Settings in all cases: glycan notation: IUPAC condensed, linker removed
[1] = target: Gal(a1-3)Gal(b1-4)GlcNAc(b1-3)GalNAc
Method in brief: (§1)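 Negative Z-scores can be read as non-binding. The Z-score is calculated within each array and then averaged across arrays of one protein sequence at different concentrations or buffers and across linkers. Arrays, 3228 in all, were curated from the Consortium for Functional Glycomics database and kept only where the protein sequence was available.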

[2] = target: Gal(a1-3)Gal(b1-4)[Fuc(a1-3)]GlcNAc
Method in brief: as §1

[3] = target: Gal(a1-3)Gal(b1-4)[Fuc(a1-3)]GlcNAc(b1-2)Man(a1-3)[Gal(a1-3)Gal(b1-4)[Fuc(a1-3)]GlcNAc(b1-2)Man(a1-6)]Man(b1-4)GlcNAc(b1-4)GlcNAc
Method in brief: as §1

Gal(a1-3)GalNAc = target: Gal(a1-3)GalNAc
Method in brief: as §1

[4] = target: Gal(a1-3)[Gal(a1-4)]Gal(b1-4)GlcNAc
Method in brief: as §1

[5] = target: Gal(a1-4)Gal(b1-3)GlcNAc(b1-2)Man(a1-3)[Gal(a1-4)Gal(b1-3)GlcNAc(b1-2)Man(a1-6)]Man(b1-4)GlcNAc(b1-4)GlcNAc
Method in brief: as §1

Gal(a1-4)Gal(b1-4)Glc = target: Gal(a1-4)Gal(b1-4)Glc
Method in brief: as §1

Gal(a1-4)Gal(b1-4)GlcNAc = target: Gal(a1-4)Gal(b1-4)GlcNAc
Method in brief: as §1

[6] = target: Gal(a1-4)Gal(b1-4)GlcNAc(b1-2)Man(a1-3)[Gal(a1-4)Gal(b1-4)GlcNAc(b1-2)Man(a1-6)]Man(b1-4)GlcNAc(b1-4)GlcNAc
Method in brief: as §1

[7] = target: Gal(a1-4)Gal(b1-4)GlcNAc(b1-3)Gal(b1-4)Glc
Method in brief: as §1

Gal(a1-4)GlcNAc = target: Gal(a1-4)GlcNAc
Method in brief: as §1

Gal(a1-6)Glc = target: Gal(a1-6)Glc
Method in brief: as §1

Gal(b1-2)Gal = target: Gal(b1-2)Gal
Method in brief: as §1

Gal(b1-3)Gal = target: Gal(b1-3)Gal
Method in brief: as §1

Gal(b1-3)Gal(b1-4)GlcNAc = target: Gal(b1-3)Gal(b1-4)GlcNAc
Method in brief: as §1

[8] = target: Gal(b1-3)Gal(b1-4)GlcNAc(b1-2)Man(a1-3)[Gal(b1-3)Gal(b1-4)GlcNAc(b1-2)Man(a1-6)]Man(b1-4)GlcNAc(b1-4)GlcNAc
Method in brief: as §1

Gal(b1-3)GalNAc = target: Gal(b1-3)GalNAc
Method in brief: as §1

[9] = target: Gal(b1-3)GalNAc(a1-3)[Fuc(a1-2)]Gal(b1-4)Glc
Method in brief: as §1

[10] = target: Gal(b1-3)GalNAc(a1-3)[Fuc(a1-2)]Gal(b1-4)GlcNAc
Method in brief: as §1

[11] = target: Gal(b1-3)GalNAc(b1-3)Gal(a1-4)Gal(b1-4)Glc
Method in brief: as §1

[12] = target: Gal(b1-3)GalNAc(b1-4)Gal(b1-4)Glc
Method in brief: as §1

[13] = target: Gal(b1-3)GalNAc(b1-4)[Neu5Ac(a2-3)]Gal(b1-4)Glc
Method in brief: as §1

Gal(b1-3)GlcNAc = target: Gal(b1-3)GlcNAc
Method in brief: as §1

[14] = target: Gal(b1-3)GlcNAc(a1-6)Gal(b1-4)GlcNAc
Method in brief: as §1

[15] = target: Gal(b1-3)GlcNAc(b1-2)Man(a1-3)[Gal(b1-3)GlcNAc(b1-2)Man(a1-6)]Man(b1-4)GlcNAc(b1-4)GlcNAc
Method in brief: as §1

[16] = target: Gal(b1-3)GlcNAc(b1-2)Man(a1-3)[Gal(b1-3)GlcNAc(b1-2)Man(a1-6)]Man(b1-4)GlcNAc(b1-4)[Fuc(a1-6)]GlcNAc
Method in brief: as §1

[17] = target: Gal(b1-3)GlcNAc(b1-2)[Gal(b1-3)GlcNAc(b1-6)]Man(a1-6)[Gal(b1-3)GlcNAc(b1-2)Man(a1-3)]Man(b1-4)GlcNAc(b1-4)GlcNAc
Method in brief: as §1

[18] = target: Gal(b1-3)GlcNAc(b1-3)Gal(b1-3)GlcNAc
Method in brief: as §1

[19] = target: Gal(b1-3)GlcNAc(b1-3)Gal(b1-4)Glc
Method in brief: as §1

[20] = target: Gal(b1-3)GlcNAc(b1-3)Gal(b1-4)GlcNAc
Method in brief: as §1

[21] = target: Gal(b1-3)GlcNAc(b1-3)Gal(b1-4)GlcNAc(b1-6)[Gal(b1-3)GlcNAc(b1-3)]Gal(b1-4)Glc
Method in brief: as §1

[22] = target: Gal(b1-3)GlcNAc(b1-3)Gal(b1-4)[Fuc(a1-3)]GlcNAc(b1-6)[Gal(b1-3)GlcNAc(b1-3)]Gal(b1-4)Glc
Method in brief: as §1

[23] = target: Gal(b1-3)GlcNAc(b1-3)GalNAc
Method in brief: as §1

[24] = target: Gal(b1-3)GlcNAc(b1-6)Gal(b1-4)GlcNAc
Method in brief: as §1

[25] = target: Gal(b1-3)[Fuc(a1-4)]GlcNAc
Method in brief: as §1

[26] = target: Gal(b1-3)[Fuc(a1-4)]GlcNAc(b1-2)Man(a1-3)[Gal(b1-3)[Fuc(a1-4)]GlcNAc(b1-2)Man(a1-6)]Man(b1-4)GlcNAc(b1-4)GlcNAc
Method in brief: as §1

[27] = target: Gal(b1-3)[Fuc(a1-4)]GlcNAc(b1-2)Man(a1-3)[Gal(b1-3)[Fuc(a1-4)]GlcNAc(b1-2)Man(a1-6)]Man(b1-4)GlcNAc(b1-4)[Fuc(a1-6)]GlcNAc
Method in brief: as §1

[28] = target: Gal(b1-3)[Fuc(a1-4)]GlcNAc(b1-3)Gal(b1-3)[Fuc(a1-4)]GlcNAc
Method in brief: as §1

B1: PGP3 (Chlamydia trachomatis), P0CE18 (protein)
chain: MGNSGFYLYNTQNCVFADNIKVGQMTEPLKDQQIILGTTSTPVAAKMTASDGISLTVSNNPSTNASITIGLDAEKAYQLILEKLGDQILGGIADTIVDSTVQDILDKITTDPSLGLLKAFNNFPITNKIQCNGLFTPRNIETLLGGTEIGKFTVTPKSSGSMFLVSADIIASRMEGGVVLALVREGDSKPYAISYGYSSGVPNLCSLRTRIINTGLTPTTYSLRVGGLESGVVWVNALSNGNDILGITNTSNVSFLEVIPQTNA
[1]
  glycan array binding signal (z-score): -0.049
[2]
  glycan array binding signal (z-score): -0.404
[3]
  glycan array binding signal (z-score): 1.76
Gal(a1-3)GalNAc
  glycan array binding signal (z-score): -0.245
[4]
  glycan array binding signal (z-score): 0.017
[5]
  glycan array binding signal (z-score): 3.06
Gal(a1-4)Gal(b1-4)Glc
  glycan array binding signal (z-score): -1.34
Gal(a1-4)Gal(b1-4)GlcNAc
  glycan array binding signal (z-score): 0.13
[6]
  glycan array binding signal (z-score): 1.94
[7]
  glycan array binding signal (z-score): -0.099
Gal(a1-4)GlcNAc
  glycan array binding signal (z-score): 1.52
Gal(a1-6)Glc
  glycan array binding signal (z-score): -1.92
Gal(b1-2)Gal
  glycan array binding signal (z-score): 0.34
Gal(b1-3)Gal
  glycan array binding signal (z-score): 0.468
Gal(b1-3)Gal(b1-4)GlcNAc
  glycan array binding signal (z-score): -0.606
[8]
  glycan array binding signal (z-score): -1.08
Gal(b1-3)GalNAc
  glycan array binding signal (z-score): 0.049
[9]
  glycan array binding signal (z-score): -0.698
[10]
  glycan array binding signal (z-score): -0.558
[11]
  glycan array binding signal (z-score): -0.346
[12]
  glycan array binding signal (z-score): 1.25
[13]
  glycan array binding signal (z-score): -0.761
Gal(b1-3)GlcNAc
  glycan array binding signal (z-score): -0.522
[14]
  glycan array binding signal (z-score): 0.546
[15]
  glycan array binding signal (z-score): 1.2
[16]
  glycan array binding signal (z-score): -0.43
[17]
  glycan array binding signal (z-score): -0.594
[18]
  glycan array binding signal (z-score): -0.292
[19]
  glycan array binding signal (z-score): -0.455
[20]
  glycan array binding signal (z-score): -0.084
[21]
  glycan array binding signal (z-score): 0.18
[22]
  glycan array binding signal (z-score): -0.39
[23]
  glycan array binding signal (z-score): 0.155
[24]
  glycan array binding signal (z-score): -0.049
[25]
  glycan array binding signal (z-score): -0.42
[26]
  glycan array binding signal (z-score): -0.88
[27]
  glycan array binding signal (z-score): 1.46
[28]
  glycan array binding signal (z-score): 0.789
